The whole screen tested about 580,000 compounds, of which about 6,100 (1.1%) were called active. The inconclusive results got no clear call from the source; some entries with a clear call stand among them for comparison. The call rests on the fitted dose curve; in most records, active means well fitted inhibition curve with a large enough effect; inconclusive means small, poorly fitted or top-dose-only effect, or another doubt; inactive means no such curve, though single readings can be large or run the other way. Where the call is inconclusive, the potency comes from a doubtful curve fit.
biological target: Polyunsaturated fatty acid lipoxygenase ALOX12 (Homo sapiens) (UniProt P18054); assay: Primary qHTS assay for inhibitors of human arachidonate 12S-lipoxygenase (ALOX12): Round 2; settings: purified 12hLO, xylenol orange hydroperoxide absorbance; activity change, negative = inhibition: at 108 µM (top of the series) unless noted
Method in brief: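 Purified human 12hLO at 150 nM in 25 mM Hepes, 0.01% Triton X-100, pH 7.0, preincubated 15 min at room temperature with compound. Reaction started with 40 uM arachidonic acid, 30 min at room temperature. Hydroperoxide measured by Fe-xylenol orange, 573/405 nm absorbance ratio.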
On the % scale 0 is the no-effect control and ±100 the full control effect; potency means the concentration at half of the fitted maximal effect.

Protein sequences, listed by entry. Tags and fused reporters are not part of them. Lines headed by an entry give the natural chain unless they say otherwise; changes in a name come on top.
UniProt P18054: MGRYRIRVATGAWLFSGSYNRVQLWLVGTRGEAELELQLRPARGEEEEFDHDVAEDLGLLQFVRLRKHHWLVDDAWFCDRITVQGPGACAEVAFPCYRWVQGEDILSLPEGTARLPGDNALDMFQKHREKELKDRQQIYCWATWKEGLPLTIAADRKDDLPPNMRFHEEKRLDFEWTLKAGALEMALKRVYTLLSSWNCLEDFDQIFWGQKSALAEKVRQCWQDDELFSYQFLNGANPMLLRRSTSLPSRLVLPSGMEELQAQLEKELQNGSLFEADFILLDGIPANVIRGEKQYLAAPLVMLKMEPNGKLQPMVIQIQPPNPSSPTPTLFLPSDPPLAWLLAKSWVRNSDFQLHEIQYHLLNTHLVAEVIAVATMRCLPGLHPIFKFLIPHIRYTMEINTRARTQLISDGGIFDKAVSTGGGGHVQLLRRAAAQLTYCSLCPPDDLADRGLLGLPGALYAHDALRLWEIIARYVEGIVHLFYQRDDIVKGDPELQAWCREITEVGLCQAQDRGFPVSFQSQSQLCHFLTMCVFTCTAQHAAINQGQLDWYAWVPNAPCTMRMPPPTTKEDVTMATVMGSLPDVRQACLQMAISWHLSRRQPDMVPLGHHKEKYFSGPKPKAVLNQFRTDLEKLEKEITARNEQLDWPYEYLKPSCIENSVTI

Row | SMILES | activity change, negative = inhibition | Potency
1 | Cc1ccc(Nc2cc(C)nc3c(C)c(C)cc([N+](=O)[O-])c23)cc1 | inactive: 15.2% | –
2 | CCn1c(C(c2ccccc2)c2ccccc2)n[nH]c1=S | – | inconclusive: 28.2 µM [inhibitor, partial curve, poor fit]
3 | Cc1nonc1C1CCCN1C(=O)c1cnc(COc2ccccc2)[nH]c1=O (configuration not stated) | – | inconclusive: 4.47 µM [inhibitor, full curve]
4 | O=C(Nc1cccnc1Oc1ccccc1)c1cc(F)cc(F)c1 | – | inconclusive: 1.78 µM [inhibitor, full curve, poor fit]
5 | Cc1ccc(Cn2c(C3CCN(C(=O)c4ccc(C#N)cc4)CC3)n[nH]c2=O)cc1 | – | active: 6.31 µM
6 | O=c1[nH]c(Cc2cccs2)nc2scc(-c3ccc(Cl)cc3)c12 | inactive: -16.7% | –
7 | O=C1/C(=C2\C(=O)N(Cc3ccc(F)cc3)c3ccccc32)SC(=S)N1CCS(=O)(=O)O | – | inconclusive: 39.8 µM [inhibitor, single point]
8 | CCOc1ccc(C2CC(=O)Nc3c(-c4ccc(C)cc4)csc32)cc1OCC (configuration not stated) | – | inconclusive: 141 µM [inhibitor, single point]
9 | CCN1CCN(c2nc(-c3ccc(F)cc3)cc(=O)[nH]2)CC1 | – | inconclusive: 11.2 µM [inhibitor, partial curve, poor fit]
10 | CN(C)Cc1cc(C[C@@H]2C[C@H](N(Cc3ccco3)Cc3ccco3)C2(C)C)no1 | inactive: 50.3% [at 176 µM] | –
11 | O=C(NCCCc1ccccc1)C1CCN(C(=O)c2ncn3c2COC(c2ccc(F)cc2)C3)CC1 (configuration not stated) | inactive: 13.1% | –
12 | Brc1csc(CNC2CCCc3c2cnn3Cc2ccccc2)c1 (configuration not stated) | – | inconclusive: 44.7 µM [inhibitor, partial curve, poor fit]
13 | COc1cc(C(C)NCc2csc(C(C)C)n2)ccc1OCCO (configuration not stated) | – | inconclusive: 8.91 µM [inhibitor, full curve]
14 | CCOc1ccccc1CNC(=O)c1ccc(Cn2c(SCc3ccccc3)nc3cccnc32)cc1 | inactive: -12.3% | –
15 | CC(C)c1nnc2sc(-c3ccc4c(c3)OCO4)nn12 | inactive: -2.79% | –
16 | N#Cc1ccc(-c2csc(-c3ccsc3)n2)cc1 | – | inconclusive: 10 µM [inhibitor, full curve]
17 | Cc1ccc(S(=O)(=O)N2CCN(C(=O)COC(=O)CCOc3ccccc3C)CC2)c(C)c1 | – | inconclusive: 50.1 µM [inhibitor, partial curve, poor fit]
18 | N=C1/C(=C\c2ccc(OC(=O)c3ccccc3Cl)cc2)C(=O)N=C2SC(N3CCOCC3)=NN12 | inactive: -27.1% | –
19 | CC(C)c1ccc2c(c1)-c1ccccc1S(=O)(=O)N2CC(=O)NCc1ccncc1 | inactive: 13% | –
20 | CN(C(=O)Cc1cccs1)C1(C(=O)NC2CCCCC2)CCCCC1 | – | inconclusive: 7.94 µM [inhibitor, full curve, poor fit]
21 | COc1ccccc1CNc1nc2ccccc2nc1C(=O)OC(C)C | inactive: -22.5% | –
22 | N#CCOc1ccc2c(=O)c(-c3ccc(Br)cc3)c(C(F)(F)F)oc2c1 | – | inconclusive: 17.8 µM [inhibitor, full curve]
23 | COc1ccc2c(c1)c(/C=C/c1cc[n+](C)cc1)cn2C | – | active: 50.1 µM

Row | SMILES | activity change, negative = inhibition | Potency
24 | N#Cc1nc(COc2ccc(Cl)cc2)oc1NCc1ccc(F)cc1 | – | inconclusive: 28.2 µM [inhibitor, partial curve, poor fit]
25 | CCCc1cc(=O)oc2c(C)c(OCC(=O)NCc3ccncc3)ccc12 | inactive: 9.35% | –
26 | S=C(NCCOCCOCCNC(=S)Nc1ccccc1)Nc1ccccc1 | – | inconclusive: 44.7 µM [inhibitor, partial curve, poor fit]
27 | CCn1c(SCC(=O)Nc2ccc(C(C)=O)cc2)nc2c([nH]c3ccccc32)c1=O | – | inconclusive: 89.1 µM [inhibitor, partial curve, poor fit]
28 | COc1ccc(Nc2cc(C(=O)NCCCN(C)Cc3ccccc3)c3ccccc3n2)cc1 | – | inconclusive: 44.7 µM [inhibitor, partial curve, poor fit]
29 | CC12CN3CC(C)(CN(C1)C3c1c[nH]c3ccccc13)C2=O (configuration not stated) | – | inactive
30 | COc1cc(C#Cc2c(-c3cncn3C)n(C)c3ccc(-c4ccc5cc[nH]c5c4)cc23)cc(OC)c1 | inactive: 2.87% | –
31 | Cc1ccc2c(CN3c4ccccc4CC3C)cc(=O)oc2c1 (configuration not stated) | – | inconclusive: 20 µM [inhibitor, partial curve, poor fit]
32 | CCN(CC(=O)Nc1cc(Cl)ccc1C)C(=O)c1cc([N+](=O)[O-])ccc1N1CCOCC1 | – | inconclusive: 39.8 µM [inhibitor, partial curve, poor fit]
33 | CCn1c(=O)n(CC)c2cc(N)ccc21 | – | inconclusive: 50.1 µM [inhibitor, partial curve, poor fit]
34 | COc1ccc(CN2C(=O)C(C)S/C2=N/N=C/c2ccco2)cc1 (configuration not stated) | – | inconclusive: 50.1 µM [inhibitor, partial curve, poor fit]
35 | O=C(NCc1ccccc1)C(c1cccnc1)N(Cc1ccco1)C(=O)c1ccccn1 (configuration not stated) | – | inconclusive: 31.6 µM [inhibitor, single point]
36 | CCOc1cc(C2Sc3ccccc3NC3=C2C(=O)c2ccccc23)ccc1O (configuration not stated) | – | inconclusive: 50.1 µM [inhibitor, partial curve, poor fit]
37 | O=C(CCl)N(C/C=C/c1ccccc1)c1ccc2c(c1)OCCO2 | – | inconclusive: 50.1 µM [inhibitor, partial curve, poor fit]
38 | Cn1c(=O)n(C)c2cc([N+](=O)[O-])c(N3CCN(C(=O)c4ccccc4Br)CC3)cc21 | inactive: -10.2% | –
39 | COc1cc(NC(=S)NCCCN2CCOCC2)c(OC)cc1Cl | – | inconclusive: 39.8 µM [inhibitor, partial curve, poor fit]
40 | O=S(=O)(Cc1ccc(Cl)cc1)c1nc2ccccc2nc1N1CCCC1 | – | inconclusive: 2 µM [inhibitor, full curve, poor fit]
41 | COc1cc(C(C)=O)ccc1OCCOc1ccc(F)cc1 | inactive: 7.81% | –
42 | Cc1ccc(NC(=O)CSCC(=O)OCc2cc(=O)oc3cc(O)ccc23)c(C)c1 | – | inconclusive: 79.4 µM [inhibitor, partial curve, poor fit]
43 | CC(C)(C)OC(=O)COC(=O)c1cccnc1Nc1ccccc1F | inactive: -13.9% | –
44 | C=CCNC(=O)c1ccc(C2SCC(=O)N2Cc2ccccc2)cc1 (configuration not stated) | inactive: -0.0008% | –
45 | CC(CN1CCN(CCOCCO)CC1)CN1c2ccccc2Sc2ccc(Cl)cc21 (configuration not stated) | inactive: -26.3% | –
46 | C[C@@H]1CN([C@@H](C)CO)C(=O)c2cc(-c3ccncc3)cnc2O[C@H]1CN(C)C(=O)c1cccc(F)c1 | – | inconclusive: 35.5 µM [inhibitor, partial curve, poor fit]

By substructure: the compounds so far with a furan ring, fused or not.
Row | SMILES | activity change, negative = inhibition | Potency
10 | CN(C)Cc1cc(C[C@@H]2C[C@H](N(Cc3ccco3)Cc3ccco3)C2(C)C)no1 | inactive: 50.3% [at 176 µM] | –
34 | COc1ccc(CN2C(=O)C(C)S/C2=N/N=C/c2ccco2)cc1 (configuration not stated) | – | inconclusive: 50.1 µM [inhibitor, partial curve, poor fit]
35 | O=C(NCc1ccccc1)C(c1cccnc1)N(Cc1ccco1)C(=O)c1ccccn1 (configuration not stated) | – | inconclusive: 31.6 µM [inhibitor, single point]

(further entries)

Row | SMILES | activity change, negative = inhibition | Potency
47 | O=S(=O)(Nc1nc2ccccc2nc1N1CCCC1)c1ccc(F)cc1 | inactive: -6.59% | –
48 | Cc1oc(-c2ccccc2)nc1CC(=O)Nc1ccc(O)c2ccccc12 | – | inconclusive: 28.2 µM [inhibitor, single point]
49 | O=C(O)C(Sc1ccc2ccccc2n1)c1ccccc1 (configuration not stated) | – | inconclusive: 17.8 µM [inhibitor, partial curve, poor fit]
50 | COC(=O)[C@]12C[C@H](CC(=O)NCc3ccc(C)o3)C(=O)N(Cc3ccc(Cl)cc3Cl)C1=C[C@H](C1CCCC1)O[C@@H]2C | – | inconclusive: 56.2 µM [inhibitor, partial curve, poor fit]
51 | COc1ccc(C2=NOC3(CCN(C(=O)c4ccccc4OC)C3)C2)cc1 (configuration not stated) | inactive: 9.48% | –
52 | Cc1cc(-c2ccc(N=Cc3cccc(Cl)c3)c(C)c2)ccc1N=Cc1cccc(Cl)c1 | inactive: -8.71% | –
53 | CC(=O)c1ccc(NC(=O)CCc2nc(-c3ccc(C)cc3)no2)cc1 | – | inconclusive: 112 µM [inhibitor, partial curve, poor fit]
54 | Brc1cccc(CN2CCCCCCC2)c1 | – | inconclusive: 0.631 µM [inhibitor, full curve, poor fit]
55 | O=C(Nc1ccccc1)c1nc2c(o1)CCN(Cc1ccc(F)cc1)CC2 | – | inconclusive: 39.8 µM [inhibitor, partial curve, poor fit]
56 | COC(=O)c1ccc(-c2nc3ccc(C)cc3o2)cc1 | inactive: 4.18% | –
57 | COc1ccccc1NC(=O)c1c(NC(=O)c2ccco2)sc2c1CCC2 | inactive: 2.72% | –
58 | CC1(C)CC(c2nc(-c3ccc(Br)cc3)cs2)CCS1 (configuration not stated) | – | inconclusive: 50.1 µM [inhibitor, partial curve, poor fit]
59 | C=CCN1CCc2cc(O)c(O)cc2C(c2ccccc2)C1 (configuration not stated) | – | inconclusive: 50.1 µM [inhibitor, partial curve, poor fit]
60 | COc1ccc(-c2c(C(=O)O)sc3c2NC(=O)CC32C(=O)N(C)c3cc(F)ccc32)cc1 (configuration not stated) | inactive: 6.53% | –
61 | Cc1cc(C(=O)NCC(F)(F)F)c2c(C3CCCN3)noc2n1 (configuration not stated) | – | inconclusive: 22.4 µM [inhibitor, full curve]
62 | c1ccc2c(NC3CCNCC3)nc(-c3ccoc3)nc2c1 | – | inconclusive: 14.1 µM [inhibitor, partial curve, poor fit]
63 | CN1CC(=O)N(C2CCC2)Cc2c1ncnc2N1CCc2ccccc2C1 | – | inconclusive: 31.6 µM [inhibitor, full curve]
64 | CC(=O)c1nn(-c2cccc(Cl)c2)cc1C(=O)c1ccco1 | inconclusive: -35.6% [inhibitor] | –
65 | Cn1c(=O)c2c(ncn2CC(=O)Nc2ccc(C34CC5CC(CC(C5)C3)C4)cc2)n(C)c1=O | – | inconclusive: 6.31 µM [inhibitor, partial curve, poor fit]
66 | CC(=O)Nc1ccc(Nc2ncnc3c2c(-c2ccccc2)cn3-c2ccc(C)c(Cl)c2)cc1 | – | inconclusive: 100 µM [inhibitor, partial curve, poor fit]
67 | Cc1ccc(S(=O)(=O)c2cc3c(=O)n4ccccc4nc3n(C3CCCCC3)c2=N)cc1 | inactive: 479% | –

From PubChem BioAssay AID1671190 (National Center for Advancing Translational Sciences (NCATS), 2021)
